Test results: paper PMC9971907, “Cryo-EM analysis of V/A-ATPase intermediates reveals the transition of the ground-state structure to steady-state structures by sequential ATP binding” (The Journal of Biological Chemistry, 2023)
Results are given in words; binding and its absence hold for the method and conditions named. Some binding calls cover weakened binding; strength is not graded here.

Target: T1, V/A-ATPase E subunit, Thermus thermophilus (T. thermophilus) (UniProt P74901)
T1 sequence: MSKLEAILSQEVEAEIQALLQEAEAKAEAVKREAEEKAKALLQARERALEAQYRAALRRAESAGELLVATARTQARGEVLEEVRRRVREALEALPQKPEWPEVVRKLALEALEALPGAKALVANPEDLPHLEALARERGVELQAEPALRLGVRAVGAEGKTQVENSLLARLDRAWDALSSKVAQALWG
Experiment: cryo-EM structure; nucleotide-free V/A-ATPase in nanodiscs, 4 uM enzyme mixed with an equal volume of x2 RB buffer (50 mM Tris-Cl pH 8.0, 100 mM KCl, 2 mM MgCl2, 5 mM PEP, 100 ug/ml PK, 20 mM ammonium sulfate) with ATP-Mg (low ATP, 60 s; or saturating ATP, 5 s or 30 s) at 25 °C; single-particle analysis, membrane domain subtracted, focused refinement of V1EG; both purified

B1: V/A-ATPase G subunit, Thermus thermophilus (protein, UniProt Q5SIT5 1-120)
chain: MTGGLVLNAISRAGGAMGGLGLIKSLAEKEKQLLERLEAAKKEAEERVKRAEAEAKALLEEAEAKAKALEAQYRERERAETEALLARYRERAEAEAKAVREKAMARLDEAVALVLKEVLP
  binding: binds
